The values that follow come from patent US20240092846A1 (priority 2022, published 2024).

Some peptides are written in HELM: one residue between dots, names in brackets for other building blocks, links after the first $.

A short description of the data set: general procedure: Fmoc solid-phase peptide synthesis; Rink-amide resin; HBTU/DIEA. The conditions noted are these: cyclisation step, on linear thioester.
In turn, “cyclo [GGVCPKILQRCRRDSDCPGACICRGNGYCGSGSGRLCYCRRRFCVCVGR] (cyclic)” showed a cyclisation yield of 20%.

“cyclo [GGVCPKILQRCRRDSDCPGACICRGNGYCGSGSGGCLCYCRRRFCVCVCRR]” gave a cyclisation yield of 16%.

Turning to “cyclo [GGVCPKILQRCRRDSDCPGACICRGNGYCGSGSGGGRLCYCRRRFCVCVCGRRG]”, the cyclisation yield turned out to be 18%.

For the substance “PEPTIDE1{G.G.V.C.P.K.I.L.Q.R.C.R.R.D.S.D.C.P.G.A.C.I.C.R.G.N.G.Y.C.G.S.G.S.G.G.R.L.C.Y.C.R.R.R.F.C.V.C.V.G.R.R}$PEPTIDE1,PEPTIDE1,1:R1-51:R2|PEPTIDE1,PEPTIDE1,4:R3-21:R3|PEPTIDE1,PEPTIDE1,11:R3-23:R3|PEPTIDE1,PEPTIDE1,17:R3-29:R3|PEPTIDE1,PEPTIDE1,38:R3-47:R3|PEPTIDE1,PEPTIDE1,40:R3-45:R3$$$V2.0”, the cyclisation yield is recorded as 40%.
